In article doi:10.1101/2024.06.15.599175 one finds binding data, which are given here for three molecules.

B1: 50S ribosomal protein L22 (protein, UniProt Q9HWE0 1-110)
chain: MEVAAKLSGARISAQKARLVADQIRGKKVGEALNLLAFSSKKAAEIMKKVLESAVANAEHNEGADVDDLKVSTVFVNEGRSLKRIMPRAKGRADRIVKRSCHITVKVADK
B2: 50S ribosomal protein L4 (protein, UniProt Q9HWD6 1-200)
chain: MQLNVNGAQAIEVSERTFGGEFNETLVHQAVVAYMAGGRQGSKAQKTRSEVSGGGKKPWRQKGTGRARAGTIRSPIWRGGGTTFAAKPRSHEQKLNKKMYRAALRSILAELVRLDRLVVVADFAVDAPKTKGLVAKLDTLGLKDVLIVTDGVDENLYLAARNLAHVDVRDVQGSDPVSLIAYDKVLVTVSAVKKFEELLG
B3: 30S ribosomal protein S9 (protein, UniProt Q9HVY3 1-130)
chain: MSATQNYGTGRRKTATARVFLRPGTGKISINNRGLDQFFGRETARMVVRQPLELTETVEKFDIFVTVVGGGVSGQAGAIRHGITRALIEYDETLRSSLRKAGYVTRDAREVERKKVGLRKARKRPQYSKR

No constants are given. Whether binding was seen depends on the method and setting. In cells and extracts the contact can be indirect. Here binding means that the protein was enriched with, or labelled near, the bait; the list need not be complete.

This assay deals with gp335-sfGFP (gp335 of Pseudomonas phage Churi with C-terminal sfGFP) (Pseudomonas phage Churi). Put plainly: affinity purification with mass spectrometry.
For the molecule B1, the binding result was “binds”.

B2: the binding result was “binds”. With B3 the entry was “binds”.
